Measured values as given in publication PMC4579573.
Changes are numbered by the printed parent chain. No constants are given. Whether binding was seen depends on the method and setting. Binding calls can cover weak binding; strength is not graded here. For some of these results: Where a sequence is shown, tags or fusion partners need not be part of it.

Legend:
CfBRCC36 (C. floridanus) [1] = molecular target: T1, CfBRCC36 (C. floridanus) (UniProt E2AXC7); assay: SEC-MALS; complexes and subcomplexes purified from insect cells; size exclusion chromatography coupled to multi-angle light scattering (Figures S1B-E and S8E-G); both purified
T1 sequence: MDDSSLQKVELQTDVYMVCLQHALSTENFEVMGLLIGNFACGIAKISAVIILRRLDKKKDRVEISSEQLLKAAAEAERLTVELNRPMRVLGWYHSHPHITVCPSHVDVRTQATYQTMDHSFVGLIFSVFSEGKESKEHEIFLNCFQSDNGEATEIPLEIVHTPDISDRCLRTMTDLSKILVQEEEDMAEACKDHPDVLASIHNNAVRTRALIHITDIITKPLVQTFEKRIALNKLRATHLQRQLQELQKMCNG

CfBRCC36 (C. floridanus) [2] = molecular target: T1, CfBRCC36 (C. floridanus); assay: crystal structure; CfBRCC36–KIAA0157ΔC, seleno-methionine-SAD, two heterodimers in the asymmetric unit, 2.55 Å; both purified
[3] = molecular target: T2, CfBRCC36 QSQ mutant (His94Gln + His96Gln) (C. floridanus) (UniProt E2AXC7); assay: crystal structure; CfBRCC36(QSQ: H94Q + H96Q)–KIAA0157ΔC, 2.75 Å; both purified
T2 sequence: T1 sequence with H94Q, H96Q

Row | Substance | binding (CfBRCC36 (C. floridanus) [1]) | binding (CfBRCC36 (C. floridanus) [2]) | binding [3]
1 | CfKIAA0157 (C. floridanus) | binds | – | –
2 | CfKIAA0157ΔC (C. floridanus) (domain or fragment) | binds | binds | binds
